# Reference: the supplement of paper PMC11438910
# The list shows a part of the results. The signal is at background level for most entries.
# Assays:
# Assay in all cases: fluorescence intensity of antibody binding to polysaccharide-coupled beads; higher = stronger binding
# [1] = target: pneumococcal polysaccharide Pn31
# [2] = target: pneumococcal polysaccharide Pn32A
# [3] = target: pneumococcal polysaccharide Pn32F
# [4] = target: pneumococcal polysaccharide Pn33A
# [5] = target: pneumococcal polysaccharide Pn33B
# [6] = target: pneumococcal polysaccharide Pn33C
# [7] = target: pneumococcal polysaccharide Pn33D
# [8] = target: pneumococcal polysaccharide Pn33F
# [9] = target: pneumococcal polysaccharide Pn34
# [10] = target: pneumococcal polysaccharide Pn35A
# [11] = target: pneumococcal polysaccharide Pn35B
# [12] = target: pneumococcal polysaccharide Pn35C
# [13] = target: pneumococcal polysaccharide Pn35F
# [14] = target: pneumococcal polysaccharide Pn36
# [15] = target: pneumococcal polysaccharide Pn37
# [16] = target: pneumococcal polysaccharide Pn38
# [17] = target: pneumococcal polysaccharide Pn39
# [18] = target: pneumococcal polysaccharide Pn4
# [19] = target: pneumococcal polysaccharide Pn40
# [20] = target: pneumococcal polysaccharide Pn41A
# [21] = target: pneumococcal polysaccharide Pn41F
# [22] = target: pneumococcal polysaccharide Pn42
# [23] = target: pneumococcal polysaccharide Pn43
# [24] = antibody concentration 81.7561 ng/mL
# [25] = antibody concentration 437.17 ng/mL
# [26] = antibody concentration 2337.65 ng/mL
# [27] = antibody concentration 12500 ng/mL
# [28] = antibody concentration 0.1 ng/mL
# [29] = antibody concentration 0.534724 ng/mL
# [30] = antibody concentration 2.8593 ng/mL
# [31] = antibody concentration 15.2894 ng/mL
binder,measurement,setting,value
4-173.2 (protein) chain 1: QLQLQESGPGLVKPSETLSLTCAVSGGSINSNYWSWIRQPPGKGLDWIGRISGSGGSTDYNPSLKSRVTISTDTSKTQFSLKLRSVTAADTAVYYCGRGSYQIDYWGQGILVTVSS chain 2: QAALTQPPSMSGSPGQSVTISCTGTSSDIGGYNRVSWYQQYPGKAPKLMIYEVSKRPSGVSDRFSGSKSGNTASLTISGLQAADEADYYCSSYAGSKALFGGGTRLTVL,fluorescence intensity,[1]; [24],14.5 MFI
same,fluorescence intensity,[1]; [25],16.5 MFI
same,fluorescence intensity,[1]; [26],23.2 MFI
same,fluorescence intensity,[1]; [27],115 MFI
same,fluorescence intensity,[2]; [28],17.5 MFI
same,fluorescence intensity,[2]; [29],17 MFI
same,fluorescence intensity,[2]; [30],18 MFI
same,fluorescence intensity,[2]; [31],19 MFI
same,fluorescence intensity,[2]; [24],19 MFI
same,fluorescence intensity,[2]; [25],20.2 MFI
same,fluorescence intensity,[2]; [26],23.5 MFI
same,fluorescence intensity,[2]; [27],45.2 MFI
same,fluorescence intensity,[3]; [28],26.5 MFI
same,fluorescence intensity,[3]; [29],29 MFI
same,fluorescence intensity,[3]; [30],29.5 MFI
same,fluorescence intensity,[3]; [31],28.5 MFI
same,fluorescence intensity,[3]; [24],29 MFI
same,fluorescence intensity,[3]; [25],34.2 MFI
same,fluorescence intensity,[3]; [26],44.8 MFI
same,fluorescence intensity,[3]; [27],57.8 MFI
same,fluorescence intensity,[4]; [28],18 MFI
same,fluorescence intensity,[4]; [29],19.5 MFI
same,fluorescence intensity,[4]; [30],18.5 MFI
same,fluorescence intensity,[4]; [31],15.5 MFI
same,fluorescence intensity,[4]; [24],19 MFI
same,fluorescence intensity,[4]; [25],21 MFI
same,fluorescence intensity,[4]; [26],63.8 MFI
same,fluorescence intensity,[4]; [27],656 MFI
same,fluorescence intensity,[5]; [28],19 MFI
same,fluorescence intensity,[5]; [29],17.5 MFI
same,fluorescence intensity,[5]; [30],18 MFI
same,fluorescence intensity,[5]; [31],17.2 MFI
same,fluorescence intensity,[5]; [24],19.2 MFI
same,fluorescence intensity,[5]; [25],17 MFI
same,fluorescence intensity,[5]; [26],20 MFI
same,fluorescence intensity,[5]; [27],29 MFI
same,fluorescence intensity,[6]; [28],19.8 MFI
same,fluorescence intensity,[6]; [29],18.5 MFI
same,fluorescence intensity,[6]; [30],20.5 MFI
same,fluorescence intensity,[6]; [31],19 MFI
same,fluorescence intensity,[6]; [24],18 MFI
same,fluorescence intensity,[6]; [25],20 MFI
same,fluorescence intensity,[6]; [26],25 MFI
same,fluorescence intensity,[6]; [27],69.5 MFI
same,fluorescence intensity,[7]; [28],16 MFI
same,fluorescence intensity,[7]; [29],15.8 MFI
same,fluorescence intensity,[7]; [30],17.2 MFI
same,fluorescence intensity,[7]; [31],15.8 MFI
same,fluorescence intensity,[7]; [24],15.5 MFI
same,fluorescence intensity,[7]; [25],17.2 MFI
same,fluorescence intensity,[7]; [26],18 MFI
same,fluorescence intensity,[7]; [27],32 MFI
same,fluorescence intensity,[8]; [28],13.5 MFI
same,fluorescence intensity,[8]; [29],13.5 MFI
same,fluorescence intensity,[8]; [30],14 MFI
same,fluorescence intensity,[8]; [31],13.5 MFI
same,fluorescence intensity,[8]; [24],15.5 MFI
same,fluorescence intensity,[8]; [25],16.8 MFI
same,fluorescence intensity,[8]; [26],35.5 MFI
same,fluorescence intensity,[8]; [27],295 MFI
same,fluorescence intensity,[9]; [28],14.5 MFI
same,fluorescence intensity,[9]; [29],13.5 MFI
same,fluorescence intensity,[9]; [30],15 MFI
same,fluorescence intensity,[9]; [31],14.2 MFI
same,fluorescence intensity,[9]; [24],13 MFI
same,fluorescence intensity,[9]; [25],14 MFI
same,fluorescence intensity,[9]; [26],15.5 MFI
same,fluorescence intensity,[9]; [27],20 MFI
same,fluorescence intensity,[10]; [28],17 MFI
same,fluorescence intensity,[10]; [29],16 MFI
same,fluorescence intensity,[10]; [30],16 MFI
same,fluorescence intensity,[10]; [31],16.5 MFI
same,fluorescence intensity,[10]; [24],17 MFI
same,fluorescence intensity,[10]; [25],16.5 MFI
same,fluorescence intensity,[10]; [26],25.5 MFI
same,fluorescence intensity,[10]; [27],114 MFI
same,fluorescence intensity,[11]; [28],19 MFI
same,fluorescence intensity,[11]; [29],17.5 MFI
same,fluorescence intensity,[11]; [30],20.5 MFI
same,fluorescence intensity,[11]; [31],18.5 MFI
same,fluorescence intensity,[11]; [24],19 MFI
same,fluorescence intensity,[11]; [25],18.5 MFI
same,fluorescence intensity,[11]; [26],23.2 MFI
same,fluorescence intensity,[11]; [27],76.8 MFI
same,fluorescence intensity,[12]; [28],21 MFI
same,fluorescence intensity,[12]; [29],20 MFI
same,fluorescence intensity,[12]; [30],21 MFI
same,fluorescence intensity,[12]; [31],19.5 MFI
same,fluorescence intensity,[12]; [24],18.5 MFI
same,fluorescence intensity,[12]; [25],19 MFI
same,fluorescence intensity,[12]; [26],22.5 MFI
same,fluorescence intensity,[12]; [27],30 MFI
same,fluorescence intensity,[13]; [28],21 MFI
same,fluorescence intensity,[13]; [29],23.5 MFI
same,fluorescence intensity,[13]; [30],16.8 MFI
same,fluorescence intensity,[13]; [31],20 MFI
same,fluorescence intensity,[13]; [24],19.5 MFI
same,fluorescence intensity,[13]; [25],17.2 MFI
same,fluorescence intensity,[13]; [26],19 MFI
same,fluorescence intensity,[13]; [27],30 MFI
same,fluorescence intensity,[14]; [28],16.5 MFI
same,fluorescence intensity,[14]; [29],15.5 MFI
same,fluorescence intensity,[14]; [30],15.5 MFI
same,fluorescence intensity,[14]; [31],17 MFI
same,fluorescence intensity,[14]; [24],17 MFI
same,fluorescence intensity,[14]; [25],17 MFI
same,fluorescence intensity,[14]; [26],21 MFI
same,fluorescence intensity,[14]; [27],77.2 MFI
same,fluorescence intensity,[15]; [28],25.5 MFI
same,fluorescence intensity,[15]; [29],26.5 MFI
same,fluorescence intensity,[15]; [30],26 MFI
same,fluorescence intensity,[15]; [31],27 MFI
same,fluorescence intensity,[15]; [24],28.5 MFI
same,fluorescence intensity,[15]; [25],32.5 MFI
same,fluorescence intensity,[15]; [26],74.2 MFI
same,fluorescence intensity,[15]; [27],550 MFI
same,fluorescence intensity,[16]; [28],25.2 MFI
same,fluorescence intensity,[16]; [29],27 MFI
same,fluorescence intensity,[16]; [30],26 MFI
same,fluorescence intensity,[16]; [31],25 MFI
same,fluorescence intensity,[16]; [24],24.2 MFI
same,fluorescence intensity,[16]; [25],26.2 MFI
same,fluorescence intensity,[16]; [26],29.5 MFI
same,fluorescence intensity,[16]; [27],55.5 MFI
same,fluorescence intensity,[17]; [28],19 MFI
same,fluorescence intensity,[17]; [29],19.2 MFI
same,fluorescence intensity,[17]; [30],17.5 MFI
same,fluorescence intensity,[17]; [31],17.5 MFI
same,fluorescence intensity,[17]; [24],20.2 MFI
same,fluorescence intensity,[17]; [25],20.5 MFI
same,fluorescence intensity,[17]; [26],23.5 MFI
same,fluorescence intensity,[17]; [27],80.5 MFI
same,fluorescence intensity,[18]; [28],18.2 MFI
same,fluorescence intensity,[18]; [29],18.5 MFI
same,fluorescence intensity,[18]; [30],19.5 MFI
same,fluorescence intensity,[18]; [31],18.2 MFI
same,fluorescence intensity,[18]; [24],18.2 MFI
same,fluorescence intensity,[18]; [25],24.5 MFI
same,fluorescence intensity,[18]; [26],30.5 MFI
same,fluorescence intensity,[18]; [27],43 MFI
same,fluorescence intensity,[19]; [28],14.8 MFI
same,fluorescence intensity,[19]; [29],16.8 MFI
same,fluorescence intensity,[19]; [30],16 MFI
same,fluorescence intensity,[19]; [31],17 MFI
same,fluorescence intensity,[19]; [24],18 MFI
same,fluorescence intensity,[19]; [25],18.5 MFI
same,fluorescence intensity,[19]; [26],25.5 MFI
same,fluorescence intensity,[19]; [27],120 MFI
same,fluorescence intensity,[20]; [28],23.5 MFI
same,fluorescence intensity,[20]; [29],22 MFI
same,fluorescence intensity,[20]; [30],25 MFI
same,fluorescence intensity,[20]; [31],23.5 MFI
same,fluorescence intensity,[20]; [24],24 MFI
same,fluorescence intensity,[20]; [25],24.8 MFI
same,fluorescence intensity,[20]; [26],24.2 MFI
same,fluorescence intensity,[20]; [27],30 MFI
same,fluorescence intensity,[21]; [28],13.5 MFI
same,fluorescence intensity,[21]; [29],13.5 MFI
same,fluorescence intensity,[21]; [30],13 MFI
same,fluorescence intensity,[21]; [31],12.5 MFI
same,fluorescence intensity,[21]; [24],13.8 MFI
same,fluorescence intensity,[21]; [25],15 MFI
same,fluorescence intensity,[21]; [26],16 MFI
same,fluorescence intensity,[21]; [27],22 MFI
same,fluorescence intensity,[22]; [28],11.5 MFI
same,fluorescence intensity,[22]; [29],11 MFI
same,fluorescence intensity,[22]; [30],12 MFI
same,fluorescence intensity,[22]; [31],12 MFI
same,fluorescence intensity,[22]; [24],12.5 MFI
same,fluorescence intensity,[22]; [25],13 MFI
same,fluorescence intensity,[22]; [26],13.5 MFI
same,fluorescence intensity,[22]; [27],40.2 MFI
same,fluorescence intensity,[23]; [28],15 MFI
same,fluorescence intensity,[23]; [29],16 MFI
same,fluorescence intensity,[23]; [30],15.5 MFI
same,fluorescence intensity,[23]; [31],15.5 MFI
same,fluorescence intensity,[23]; [24],18 MFI
same,fluorescence intensity,[23]; [25],19 MFI
same,fluorescence intensity,[23]; [26],39.5 MFI
same,fluorescence intensity,[23]; [27],292 MFI

# Quoted from the results shown for reference:
binder,measurement,setting,value
4-173.2 (protein) chain 1: QLQLQESGPGLVKPSETLSLTCAVSGGSINSNYWSWIRQPPGKGLDWIGRISGSGGSTDYNPSLKSRVTISTDTSKTQFSLKLRSVTAADTAVYYCGRGSYQIDYWGQGILVTVSS chain 2: QAALTQPPSMSGSPGQSVTISCTGTSSDIGGYNRVSWYQQYPGKAPKLMIYEVSKRPSGVSDRFSGSKSGNTASLTISGLQAADEADYYCSSYAGSKALFGGGTRLTVL,fluorescence intensity,[15]; [30],26 MFI
same,fluorescence intensity,[15]; [31],27 MFI

# Exported with tabs: part of the list above
binder	measurement	setting	value
4-173.2 (protein) chain 1: QLQLQESGPGLVKPSETLSLTCAVSGGSINSNYWSWIRQPPGKGLDWIGRISGSGGSTDYNPSLKSRVTISTDTSKTQFSLKLRSVTAADTAVYYCGRGSYQIDYWGQGILVTVSS chain 2: QAALTQPPSMSGSPGQSVTISCTGTSSDIGGYNRVSWYQQYPGKAPKLMIYEVSKRPSGVSDRFSGSKSGNTASLTISGLQAADEADYYCSSYAGSKALFGGGTRLTVL	fluorescence intensity	[4]; [25]	21 MFI
same	fluorescence intensity	[11]; [25]	18.5 MFI
same	fluorescence intensity	[12]; [25]	19 MFI
same	fluorescence intensity	[16]; [27]	55.5 MFI
